Source: publication PMC12789588
Results are given in words; binding and its absence hold for the method and conditions named. Binding seen in cells or lysates may run through a third protein. Some results given as binding are weak or reduced against the parent protein; the word gives no strength.

Protein sequences, listed by entry. Tags and fused reporters are not part of them. Residues count along the entry.
UniProt Q64487, residues 21-1912: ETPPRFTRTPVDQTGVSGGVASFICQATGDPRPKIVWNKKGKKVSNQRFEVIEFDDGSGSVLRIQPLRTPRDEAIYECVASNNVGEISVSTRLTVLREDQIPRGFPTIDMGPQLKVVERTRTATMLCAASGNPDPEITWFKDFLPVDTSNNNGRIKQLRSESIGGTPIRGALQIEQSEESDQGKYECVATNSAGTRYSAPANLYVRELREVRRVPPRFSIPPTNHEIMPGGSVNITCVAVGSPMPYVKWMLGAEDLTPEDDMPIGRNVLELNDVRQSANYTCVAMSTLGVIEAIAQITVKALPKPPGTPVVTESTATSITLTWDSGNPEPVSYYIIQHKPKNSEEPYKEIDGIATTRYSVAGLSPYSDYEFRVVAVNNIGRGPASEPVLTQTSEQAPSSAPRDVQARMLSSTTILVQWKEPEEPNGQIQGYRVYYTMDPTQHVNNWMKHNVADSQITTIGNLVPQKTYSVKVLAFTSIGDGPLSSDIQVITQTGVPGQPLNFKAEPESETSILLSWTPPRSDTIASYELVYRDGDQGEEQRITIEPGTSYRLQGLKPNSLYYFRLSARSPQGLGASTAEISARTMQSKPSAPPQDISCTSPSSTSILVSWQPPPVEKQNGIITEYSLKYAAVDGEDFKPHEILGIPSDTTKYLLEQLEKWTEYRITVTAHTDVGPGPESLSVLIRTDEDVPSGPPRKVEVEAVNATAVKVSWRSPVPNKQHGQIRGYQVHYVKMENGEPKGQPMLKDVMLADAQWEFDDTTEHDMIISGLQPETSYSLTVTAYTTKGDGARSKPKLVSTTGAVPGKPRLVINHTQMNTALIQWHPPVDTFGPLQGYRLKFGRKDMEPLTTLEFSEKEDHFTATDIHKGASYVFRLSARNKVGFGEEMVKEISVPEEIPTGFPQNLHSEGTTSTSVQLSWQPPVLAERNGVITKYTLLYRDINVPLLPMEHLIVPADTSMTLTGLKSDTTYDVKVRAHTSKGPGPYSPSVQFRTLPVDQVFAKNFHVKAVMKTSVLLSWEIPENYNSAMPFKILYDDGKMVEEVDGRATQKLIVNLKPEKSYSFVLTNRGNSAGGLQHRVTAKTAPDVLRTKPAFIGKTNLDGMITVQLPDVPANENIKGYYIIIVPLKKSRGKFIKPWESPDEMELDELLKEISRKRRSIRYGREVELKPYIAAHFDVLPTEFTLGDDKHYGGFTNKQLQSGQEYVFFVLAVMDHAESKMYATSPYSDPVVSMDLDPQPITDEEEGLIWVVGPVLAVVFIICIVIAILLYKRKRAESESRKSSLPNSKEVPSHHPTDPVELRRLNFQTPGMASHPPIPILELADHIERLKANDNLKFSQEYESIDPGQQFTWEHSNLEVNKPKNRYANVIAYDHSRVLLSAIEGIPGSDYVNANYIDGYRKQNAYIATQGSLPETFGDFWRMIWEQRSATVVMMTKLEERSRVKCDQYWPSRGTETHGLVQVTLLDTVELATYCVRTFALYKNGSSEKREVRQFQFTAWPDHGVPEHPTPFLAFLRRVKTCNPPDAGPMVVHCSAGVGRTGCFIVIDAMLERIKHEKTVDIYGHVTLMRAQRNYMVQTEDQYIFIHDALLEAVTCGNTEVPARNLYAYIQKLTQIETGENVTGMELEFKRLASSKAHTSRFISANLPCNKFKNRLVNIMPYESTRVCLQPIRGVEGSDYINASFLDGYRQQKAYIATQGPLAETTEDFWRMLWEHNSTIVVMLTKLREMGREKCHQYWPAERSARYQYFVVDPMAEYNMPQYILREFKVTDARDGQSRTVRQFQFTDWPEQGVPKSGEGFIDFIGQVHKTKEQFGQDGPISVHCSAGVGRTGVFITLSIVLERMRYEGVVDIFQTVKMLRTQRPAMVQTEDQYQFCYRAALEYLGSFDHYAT

Target: protein tyrosine phosphatase receptor delta (PTPRD), overexpressed in HEK293T cells (UniProt Q64487)
Experiment: co-IP; MARCH2 and PTPRD both overexpressed in HEK293T cells; NP40 lysis with sonication; 1 mg lysate with anti-FLAG antibody, anti-MYC antibody or nonimmune IgG at 4 °C overnight; Protein A/G magnetic beads; five washes with lysis buffer; Western blot

B1: membrane-associated RING finger protein 2 (MARCH2), overexpressed in HEK293T cells (enzyme, UniProt Q99M02 1-246)
chain: MTTGDCCHLPGSLCDCSSSPAFSKVVEATGLGPPQYVAQVTSRDGRLLSTVIRALDSQSDCPFCRICHEGANGENLLSPCGCTGTLGAVHKSCLEKWLSSSNTSYCELCHTEFAVEKRPRPLTEWLKDPGPRTEKRTLCCDMVCFVFITPLAAISGWLCLRGAQDHLRLHSRLEAVGLIALTIALFTIYVLWTLVSFRYHCQLYSEWRKTNQKVRLKIREADGSEDPHHSLLATGLLKKVAEETPV
binding: binds
